# Reference: PMC4659909
# Sequences of proteins named here, by UniProt entry; tags and fusion partners are left off. Residues count along the entry.
# UniProt Q01705, residues 19-2531: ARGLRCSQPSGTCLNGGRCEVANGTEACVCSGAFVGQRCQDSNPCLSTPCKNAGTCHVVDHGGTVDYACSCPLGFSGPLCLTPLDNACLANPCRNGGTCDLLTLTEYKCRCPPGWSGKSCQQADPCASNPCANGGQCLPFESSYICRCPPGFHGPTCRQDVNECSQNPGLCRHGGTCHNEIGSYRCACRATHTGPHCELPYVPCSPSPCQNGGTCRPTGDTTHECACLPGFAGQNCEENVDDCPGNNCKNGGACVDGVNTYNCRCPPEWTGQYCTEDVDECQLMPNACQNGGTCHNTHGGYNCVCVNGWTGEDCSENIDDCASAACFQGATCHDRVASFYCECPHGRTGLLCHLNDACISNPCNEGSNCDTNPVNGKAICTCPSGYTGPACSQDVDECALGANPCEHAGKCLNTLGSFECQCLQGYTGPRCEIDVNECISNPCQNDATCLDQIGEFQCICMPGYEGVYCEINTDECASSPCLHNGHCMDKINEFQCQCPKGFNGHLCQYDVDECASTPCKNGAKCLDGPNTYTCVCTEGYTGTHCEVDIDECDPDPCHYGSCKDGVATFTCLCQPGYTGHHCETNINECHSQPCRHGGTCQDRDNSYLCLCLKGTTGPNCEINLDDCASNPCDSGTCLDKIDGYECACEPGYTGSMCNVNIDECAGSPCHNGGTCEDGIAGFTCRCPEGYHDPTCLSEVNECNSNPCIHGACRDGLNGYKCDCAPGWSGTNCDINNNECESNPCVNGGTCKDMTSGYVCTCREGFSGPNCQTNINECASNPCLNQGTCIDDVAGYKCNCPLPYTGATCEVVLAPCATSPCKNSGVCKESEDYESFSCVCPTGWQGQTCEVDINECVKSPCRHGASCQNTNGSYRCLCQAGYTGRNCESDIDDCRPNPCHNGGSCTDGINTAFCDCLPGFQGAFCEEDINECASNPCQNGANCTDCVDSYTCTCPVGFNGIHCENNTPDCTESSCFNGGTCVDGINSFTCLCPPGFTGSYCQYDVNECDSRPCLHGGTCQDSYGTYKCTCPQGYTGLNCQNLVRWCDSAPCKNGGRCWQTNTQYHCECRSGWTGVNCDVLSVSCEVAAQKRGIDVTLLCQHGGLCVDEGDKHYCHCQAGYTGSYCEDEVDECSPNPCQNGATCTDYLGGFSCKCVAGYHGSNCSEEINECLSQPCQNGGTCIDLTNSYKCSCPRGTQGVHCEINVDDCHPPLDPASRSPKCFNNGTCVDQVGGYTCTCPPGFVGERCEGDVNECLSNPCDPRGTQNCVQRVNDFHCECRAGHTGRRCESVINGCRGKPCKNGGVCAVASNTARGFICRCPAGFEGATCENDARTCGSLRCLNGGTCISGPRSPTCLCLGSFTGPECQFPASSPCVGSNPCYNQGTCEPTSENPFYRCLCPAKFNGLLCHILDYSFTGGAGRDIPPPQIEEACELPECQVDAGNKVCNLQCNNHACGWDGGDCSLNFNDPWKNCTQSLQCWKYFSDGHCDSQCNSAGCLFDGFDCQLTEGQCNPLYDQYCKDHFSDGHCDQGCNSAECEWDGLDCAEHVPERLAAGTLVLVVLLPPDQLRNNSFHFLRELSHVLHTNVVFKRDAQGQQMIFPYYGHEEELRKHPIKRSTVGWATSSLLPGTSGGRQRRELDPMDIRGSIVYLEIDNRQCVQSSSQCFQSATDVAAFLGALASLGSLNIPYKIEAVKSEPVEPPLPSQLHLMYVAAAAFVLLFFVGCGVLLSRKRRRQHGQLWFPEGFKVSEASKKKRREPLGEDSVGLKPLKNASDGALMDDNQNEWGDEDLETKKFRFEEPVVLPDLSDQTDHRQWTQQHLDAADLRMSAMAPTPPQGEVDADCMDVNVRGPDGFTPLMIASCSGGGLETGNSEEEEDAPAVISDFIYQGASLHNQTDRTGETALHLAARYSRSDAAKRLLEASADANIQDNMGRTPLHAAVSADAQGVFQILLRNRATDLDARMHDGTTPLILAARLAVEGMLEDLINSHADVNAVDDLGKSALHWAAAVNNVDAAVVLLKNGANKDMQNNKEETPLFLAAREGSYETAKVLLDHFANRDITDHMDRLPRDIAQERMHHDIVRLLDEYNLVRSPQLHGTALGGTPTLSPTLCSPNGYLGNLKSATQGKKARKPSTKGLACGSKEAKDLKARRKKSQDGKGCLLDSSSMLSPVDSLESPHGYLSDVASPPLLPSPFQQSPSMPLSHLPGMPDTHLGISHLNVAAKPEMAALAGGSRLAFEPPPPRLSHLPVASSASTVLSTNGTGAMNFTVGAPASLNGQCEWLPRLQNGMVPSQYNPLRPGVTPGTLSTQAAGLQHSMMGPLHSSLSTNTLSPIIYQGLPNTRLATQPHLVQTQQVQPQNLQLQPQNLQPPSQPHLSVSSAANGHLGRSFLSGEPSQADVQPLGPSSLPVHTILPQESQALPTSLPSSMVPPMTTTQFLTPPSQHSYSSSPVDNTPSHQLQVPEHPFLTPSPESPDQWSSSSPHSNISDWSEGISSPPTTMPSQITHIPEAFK
# UniProt Q924X6, residues 29-996: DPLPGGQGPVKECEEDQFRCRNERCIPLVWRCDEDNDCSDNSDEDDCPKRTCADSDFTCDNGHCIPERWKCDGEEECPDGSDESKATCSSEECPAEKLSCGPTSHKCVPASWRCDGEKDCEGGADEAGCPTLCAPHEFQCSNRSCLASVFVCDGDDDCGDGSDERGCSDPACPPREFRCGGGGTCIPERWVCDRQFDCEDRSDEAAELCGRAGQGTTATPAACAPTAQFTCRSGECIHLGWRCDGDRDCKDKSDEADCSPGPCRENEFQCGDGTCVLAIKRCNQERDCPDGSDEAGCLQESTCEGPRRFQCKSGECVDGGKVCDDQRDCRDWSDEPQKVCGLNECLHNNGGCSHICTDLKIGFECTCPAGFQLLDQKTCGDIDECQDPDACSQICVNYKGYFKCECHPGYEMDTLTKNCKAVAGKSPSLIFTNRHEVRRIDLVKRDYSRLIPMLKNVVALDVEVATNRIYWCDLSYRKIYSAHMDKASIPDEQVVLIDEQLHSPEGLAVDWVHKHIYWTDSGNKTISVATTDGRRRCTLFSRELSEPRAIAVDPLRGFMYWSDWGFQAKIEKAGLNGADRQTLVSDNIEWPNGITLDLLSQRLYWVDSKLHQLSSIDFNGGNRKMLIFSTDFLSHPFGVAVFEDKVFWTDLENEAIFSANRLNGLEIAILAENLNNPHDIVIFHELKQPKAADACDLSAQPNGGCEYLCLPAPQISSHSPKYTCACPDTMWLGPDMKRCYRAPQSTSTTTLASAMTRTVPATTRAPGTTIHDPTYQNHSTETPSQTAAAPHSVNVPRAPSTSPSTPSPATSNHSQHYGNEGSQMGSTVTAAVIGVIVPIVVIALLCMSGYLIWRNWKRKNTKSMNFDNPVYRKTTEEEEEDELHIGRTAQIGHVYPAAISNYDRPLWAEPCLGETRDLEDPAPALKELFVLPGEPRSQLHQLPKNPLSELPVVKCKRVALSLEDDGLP
# These are yes or no findings as the source states them, for the method shown. Binding seen in cells or lysates may run through a third protein. Some entries that bind do so weakly or less than the wild type.
# Key:
# [1] = target: Notch1 (mouse (endogenous in hippocampus and cortex)) (UniProt Q01705); assay: co-IP; whole hippocampal (CA fields) cell lysate in non-ionic NP-40 buffer, 1.2 mg protein; antibodies against Notch1, ApoER2 or Dab1; protein A/G magnetic beads; washes with 0.1% Triton, 50 mM Tris-HCl pH 7.5, 300 mM NaCl, one wash with 0.2% SDS; Western blot
# [2] = target: Notch1 (mouse (endogenous in hippocampus and cortex)) (UniProt Q01705); assay: co-IP; whole cortical lysate of WT mice in non-ionic buffer, 1.2 mg protein; protein A/G magnetic beads; washes with 0.1% Triton, 50 mM Tris-HCl pH 7.5, 300 mM NaCl, one wash with 0.2% SDS; Western blot
# [3] = target: Notch1 (mouse (endogenous in hippocampus and cortex)) (UniProt Q01705); assay: co-IP; synaptosomal membrane fractions of hippocampal CA fields (WT; N1cKO also for Notch1/ApoER2), 1.2 mg protein; antibodies against the intracellular portion of Notch1 or the extracellular portion of NR1; protein A/G magnetic beads; Western blot
# [4] = target: apolipoprotein E receptor 2 (ApoER2) (mouse (endogenous in hippocampus and cortex)) (UniProt Q924X6); assay: co-IP; whole cortical lysate of WT mice in non-ionic buffer, 1.2 mg protein; protein A/G magnetic beads; washes with 0.1% Triton, 50 mM Tris-HCl pH 7.5, 300 mM NaCl, one wash with 0.2% SDS; Western blot
# [5] = target: Notch1 (mouse (endogenous in hippocampus and cortex)) (UniProt Q01705); assay: co-IP; whole hippocampal (CA fields) cell lysate in non-ionic NP-40 buffer, 1.2 mg protein; antibodies against Notch1, ApoER2 or Dab1; protein A/G magnetic beads; washes with 0.1% Triton, 50 mM Tris-HCl pH 7.5, 300 mM NaCl, one wash with 0.2% SDS; Western blot; remark: listed apart in the source
# [6] = target: apolipoprotein E receptor 2 (ApoER2) (mouse (endogenous in hippocampus and cortex)) (UniProt Q924X6); assay: as above
binding [1],binding [2],binding [3],binding [4],binding [5],binding [6],Molecule
binds weakly,binds,binds,–,–,–,apolipoprotein E receptor 2 (ApoER2) (from UniProt Q924X6 29-996)
–,binds,–,binds,binds,binds,"Disabled 1 (Dab1) (protein, UniProt P97318 1-588) MSTETELQVAVKTSAKKDSRKKGQDRSEATLIKRFKGEGVRYKAKLIGIDEVSAARGDKLCQDSMMKLKGVVAGARSKGEHKQKIFLTISFGGIKIFDEKTGALQHHHAVHEISYIAKDITDHRAFGYVCGKEGNHRFVAIKTAQAAEPVILDLRDLFQLIYELKQREELEKKAQKDKQCEQAVYQTILEEDVEDPVYQYIVFEAGHEPIRDPETEENIYQVPTSQKKEGVYDVPKSQPNSQPLEDFESRFAAATPNRNLSMDFDELLEATKVSAVTQLELFGDMSTPPDITSPPTPATPGDAFLPSSSQTLPGSADVFGSMSFGTAAVPSGYVAMGAVLPSFWGQQPLVQQQIAMGAQPPVAQVIPGAQPIAWGQPGLFPATQQAWPTVAGQFPPAAFMPTQTVMPLAAAMFQGPLTPLATVPGTNDSARSSPQSDKPRQKMGKESFKDFQMVQPPPVPSRKPDQPSLTCTSEAFSSYFNKVGVAQDTDDCDDFDISQLNLTPVTSTTPSTNSPPTPAPRQSSPSKSSASHVSDPTADDIFEEGFESPSKSEEQEAPDGSQASSTSDPFGEPSGEPSGDNISPQDGS"
